Reference: PubChem BioAssay AID1259329 (Drosophila RNAi Screening Center, 2017)

Test: 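Water reference run beside parallel screens of metal toxicity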
System: Drosophila S2R+ cells
Knock-down reagent: long dsRNA against Drosophila genes
Timing: 5 days (4 days knock-down, then 1 day after water)
Challenge: water added as vehicle control, no metal, one day before read-out
Read-out: 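After 4 days of knock-down, water was added with no metal, and total ATP was read by luciferase light a day later on two plate copies, as mean z-score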
Scale: mean ATP z-score: higher = more total ATP, likely more viable cells
Rule for the call: 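Active means the absolute value of the z-score is over 1.5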
In all, the deposit lists 418 reagents; shown is a part drawn at random. Of all reagents, 20 (4.8%) are marked active. 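All active calls have high ATP; no reagent fell below -1.5.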 Unmarked entries are inactive. Not stated in the record: the amount of reagent, the dose of the treatment.

target gene	dsRNA	mean ATP z-score
Tsp39D (Tetraspanin 39D)	DRSC03099	-0.771
Tsp39D (Tetraspanin 39D)	DRSC40050	-0.107
Hexo2 (Hexosaminidase 2)	DRSC18671	-0.146
Npc2f (Niemann-Pick type C-2f)	DRSC15980	1.8 (active)
Npc2a (Niemann-Pick type C-2a)	DRSC00698	0.135
CG31661	DRSC00296	0.886
CG31661	DRSC28732	-0.296
Sod1 (Superoxide dismutase 1)	DRSC11286	-0.185
Sod1 (Superoxide dismutase 1)	DRSC34593	0.38
Sod1 (Superoxide dismutase 1)	DRSC40766	-0.781
Acox57D-d (acyl-Coenzyme A oxidase at 57D distal)	DRSC04561	0.199
Acox57D-d (acyl-Coenzyme A oxidase at 57D distal)	DRSC30108	0.0202
Vps28 (Vacuolar protein sorting 28)	DRSC06168	0.397
Vps28 (Vacuolar protein sorting 28)	DRSC31695	-0.231
Vps28 (Vacuolar protein sorting 28)	DRSC31696	-0.817
Daao1 (D-amino acid oxidase 1)	DRSC06131	0.82
LManII (Lysosomal alpha-mannosidase II)	DRSC01986	-0.483
CG32191	DRSC10522	0.186
Lerp (lysosomal enzyme receptor protein)	DRSC14751	1.63 (active)
Lerp (lysosomal enzyme receptor protein)	DRSC16030	-0.655
Lerp (lysosomal enzyme receptor protein)	DRSC16031	0.945
Npc1a (Niemann-Pick type C-1a)	DRSC03378	-0.657
Npc1a (Niemann-Pick type C-1a)	DRSC33330	-0.634
Npc1a (Niemann-Pick type C-1a)	DRSC39428	0.346
Vha36-2 (Vacuolar H[+] ATPase 36kD subunit 2)	DRSC06294	-0.537
Vha36-2 (Vacuolar H[+] ATPase 36kD subunit 2)	DRSC29238	0.685
Bace (beta-site APP-cleaving enzyme)	DRSC02197	0.444
Bace (beta-site APP-cleaving enzyme)	DRSC28723	-1.03
Bace (beta-site APP-cleaving enzyme)	DRSC33860	-1.07
vsg (visgun)	DRSC25227	-1.1
CG8646	DRSC07230	0.361
CG14777	DRSC18563	1.77 (active)
CG14777	DRSC40040	-0.767
Vha68-1 (Vacuolar H[+] ATPase 68kD subunit 1)	DRSC03470	0.788
Vha68-1 (Vacuolar H[+] ATPase 68kD subunit 1)	DRSC31230	-0.969
Vha68-1 (Vacuolar H[+] ATPase 68kD subunit 1)	DRSC40775	0.922
Ids (Iduronate 2-sulfatase)	DRSC08222	-0.762
CG17597	DRSC02630	-1.17
CG17597	DRSC24788	-1.27
or (orange)	DRSC04329	-0.804
or (orange)	DRSC29241	0.738
or (orange)	DRSC37306	-0.82
Hel25E (Helicase at 25E)	DRSC28348	0.365
Hel25E (Helicase at 25E)	DRSC30679	-0.28
Hel25E (Helicase at 25E)	DRSC30680	1.96 (active)

A stretch from the list above, for reference:
target gene	dsRNA	mean ATP z-score
Npc1a (Niemann-Pick type C-1a)	DRSC33330	-0.634
Npc1a (Niemann-Pick type C-1a)	DRSC39428	0.346
Vha36-2 (Vacuolar H[+] ATPase 36kD subunit 2)	DRSC06294	-0.537
Vha36-2 (Vacuolar H[+] ATPase 36kD subunit 2)	DRSC29238	0.685
